# Data source: PubChem BioAssay AID652272 (Drosophila RNAi Screening Center, 2013)
# Test: 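Genome-wide knock-down search for components of Hedgehog signalling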 (primary screen)
# Cell system: Drosophila clone 8 (Cl8) cells
# Reagents: long dsRNA against Drosophila genes
# Read-out: 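Plate reader light from a firefly reporter under a ptc promoter fragment that responds to Hedgehog, with Renilla light as transfection reference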
# Reading the numbers: firefly Hh reporter signal: higher = more ptc reporter light; Renilla reference signal: higher = more Renilla control light
# Rule for the call: 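Called a hit if the two-replicate mean z-score lies below -2 or above +3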
# Calls: active = hit: reporter lowered or raised; inactive = not a hit
# The deposit covers about 21,000 reagents; below is an unselected part of those with a known target gene and a result. Of all reagents, 503 (2.4%) are marked active. 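Raw plate light values, not normalised; calls rest on replicate z-scores that were not deposited; hits include reporter decreases as well as increases.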 Names joined by + are all predicted targets of the reagent. No sequences are given here. Not stated in the record: the amount of reagent, the time to read-out.
The opening 6 entries, to show the layout:
Target gene,amplicon,"firefly Hh reporter signal, replicate 1","firefly Hh reporter signal, replicate 2","firefly Hh reporter signal, replicate 3","Renilla reference signal, replicate 1","Renilla reference signal, replicate 2",call
CG12679,DRSC20493,64515,1.25e5,,1456,5620,inactive
NfI,DRSC17158,1.51e5,3.32e5,,5916,12272,inactive
CG13532,DRSC04174,1.25e5,91557,,2781,8279,inactive
Topors,DRSC06531,1.02e5,56426,,4304,2473,inactive
CG33298,DRSC02210,1.04e5,30290,,2704,3313,inactive
CG33298,DRSC02672,73910,1.03e5,,2870,3879,inactive

Main list, from the start:
Target gene,amplicon,"firefly Hh reporter signal, replicate 1","firefly Hh reporter signal, replicate 2","firefly Hh reporter signal, replicate 3","Renilla reference signal, replicate 1","Renilla reference signal, replicate 2",call
CG12679,DRSC20493,64515,1.25e5,,1456,5620,inactive
NfI,DRSC17158,1.51e5,3.32e5,,5916,12272,inactive
CG13532,DRSC04174,1.25e5,91557,,2781,8279,inactive
Topors,DRSC06531,1.02e5,56426,,4304,2473,inactive
CG33298,DRSC02210,1.04e5,30290,,2704,3313,inactive
CG33298,DRSC02672,73910,1.03e5,,2870,3879,inactive
Acf,DRSC14101,69395,94469,,1722,2944,inactive
IFT57,DRSC00720,1.58e5,53781,,4032,5696,inactive
cac,DRSC19743,81542,2.65e5,,2365,9228,inactive
cac,DRSC20354,88042,69866,,2032,1812,inactive
btd,DRSC18747,55636,1.50e5,,1651,5122,inactive
se,DRSC10713,51165,49146,,5371,3066,inactive
Fkbp14,DRSC04615,1.93e5,97408,,6934,3796,inactive
Vha68-2,DRSC02721,1.59e5,73056,,3776,6818,inactive
CG7368,DRSC10826,59192,77575,3.97e5,5301,2280,inactive
IntS10,DRSC08173,71152,47586,,1897,3302,inactive
comm,DRSC11336,1.26e5,,,5606,3873,inactive
Phf5a,DRSC03261,92471,49201,,2067,6138,inactive
thw,DRSC12552,81685,99600,,2432,2966,inactive
pita,DRSC04006,1.53e5,1.92e5,,2997,7011,inactive
pita,DRSC04435,1.02e5,54387,,3485,2045,inactive
mldr,DRSC18100,91750,2.12e5,,2560,8407,inactive
Inx7,DRSC18784,65168,2.55e5,,2706,9008,inactive
CG4360,DRSC15566,4.89e5,96556,,27382,2317,inactive
beta4GalT7,DRSC14385,4.81e5,82051,,21963,2528,inactive
CG9915,DRSC20217,72402,2.13e5,,2308,6514,inactive
CG33120,DRSC02073,1.04e5,62153,,4440,2640,inactive
Dgp-1,DRSC07400,79305,62262,,2232,4352,inactive
CG3483,DRSC04371,1.07e5,94508,,4661,3648,inactive
Dcr-1,DRSC15646,1.25e5,1.05e5,,5785,4775,inactive
Rift,DRSC14330,1.07e5,2.22e5,,3760,8288,inactive
CG34169,DRSC01579,1.12e5,3.55e5,,3132,16180,inactive
Nrg,DRSC17573,5.09e5,1.57e5,,28085,3696,inactive
Nrg,DRSC18688,1.16e5,1.05e5,,2576,2970,inactive
grk,DRSC03540,1.15e5,72915,,5013,2193,inactive
CG14380,DRSC14840,1.14e5,78659,,4365,2264,inactive
CG7706,DRSC16295,72704,81308,,3249,2896,inactive
CG7298,DRSC10802,66944,76704,,2982,3109,inactive
GatB,DRSC15807,4.71e5,98316,,24423,2969,inactive
CG3764,DRSC10375,65995,82210,,3111,3418,inactive
ZIPIC,DRSC16349,94713,69856,,2240,2016,inactive
Taf10b + Taf10,DRSC00793,92578,86058,,2297,2402,inactive
CG15909,DRSC04977,76573,54886,,2392,2787,inactive
Acyp,DRSC01861,1.29e5,60932,,3526,6176,inactive
Roe1,DRSC07534,1.06e5,51969,,5029,2605,inactive
CG33144,DRSC06132,67220,52157,,3297,2336,inactive
CG33144,DRSC07024,99841,63140,,3208,6948,inactive
lncRNA:CR43435,DRSC12414,1.89e5,,,3830,,inactive
CG34051,DRSC01739,5.99e5,2.59e5,1.14e5,4608,6118,inactive
Rh7,DRSC10529,66384,53485,,3920,2800,inactive
CG15864,DRSC15122,82400,91634,,3088,2720,inactive
sona,DRSC04089,69069,65891,,1665,5045,inactive
sona,DRSC04574,70497,50727,,2178,5312,inactive
sona,DRSC04575,74978,52473,,2512,5297,inactive
Cpr65Az,DRSC09882,1.05e5,86411,,9654,6387,inactive
CycY,DRSC02420,1.06e5,53597,,4612,2596,inactive
toe,DRSC09174,88508,2.28e5,,2712,8954,inactive
toe,DRSC09783,76420,43877,25056,1720,1661,inactive
CG12490,DRSC04123,74498,63264,,1644,6141,inactive
Atat,DRSC10392,69808,34912,,3607,1466,inactive
mRpL3,DRSC20100,79036,2.32e5,,3098,8705,inactive
CG33160,DRSC08197,87277,32384,,3315,2811,inactive
CG4483,DRSC10426,5.63e5,79688,,2667,2667,inactive
CG32694,DRSC17844,83857,1.45e5,,2900,4890,inactive
CG32694,DRSC17855,78312,2.13e5,,1146,9597,inactive
nan,DRSC10551,75419,,,2440,2209,inactive
CG41520,DRSC21102,5.79e5,2.65e5,,34496,6467,inactive
CG41520,DRSC21103,70336,2.37e5,,2240,10285,inactive
CG14491,DRSC06462,93227,95830,,1906,6498,inactive
Tina-1,DRSC04317,89189,1.05e5,,3638,4227,inactive
CG13215,DRSC06337,1.00e5,72128,,2276,6018,inactive
CG16825,DRSC02526,1.02e5,42608,,2150,3741,inactive
eIF2Bgamma,DRSC07100,98423,87680,,4717,3686,inactive
